PMC3104994
No constants are given. Whether binding was seen depends on the method and setting. Binding seen in cells or lysates may run through a third protein.

By UniProt entry, the sequences of proteins in these tests, tags left out. Where a name states a change or a piece, a line headed by the entry shows the natural chain unless it says otherwise. Residues count along the entry.
UniProt O43295: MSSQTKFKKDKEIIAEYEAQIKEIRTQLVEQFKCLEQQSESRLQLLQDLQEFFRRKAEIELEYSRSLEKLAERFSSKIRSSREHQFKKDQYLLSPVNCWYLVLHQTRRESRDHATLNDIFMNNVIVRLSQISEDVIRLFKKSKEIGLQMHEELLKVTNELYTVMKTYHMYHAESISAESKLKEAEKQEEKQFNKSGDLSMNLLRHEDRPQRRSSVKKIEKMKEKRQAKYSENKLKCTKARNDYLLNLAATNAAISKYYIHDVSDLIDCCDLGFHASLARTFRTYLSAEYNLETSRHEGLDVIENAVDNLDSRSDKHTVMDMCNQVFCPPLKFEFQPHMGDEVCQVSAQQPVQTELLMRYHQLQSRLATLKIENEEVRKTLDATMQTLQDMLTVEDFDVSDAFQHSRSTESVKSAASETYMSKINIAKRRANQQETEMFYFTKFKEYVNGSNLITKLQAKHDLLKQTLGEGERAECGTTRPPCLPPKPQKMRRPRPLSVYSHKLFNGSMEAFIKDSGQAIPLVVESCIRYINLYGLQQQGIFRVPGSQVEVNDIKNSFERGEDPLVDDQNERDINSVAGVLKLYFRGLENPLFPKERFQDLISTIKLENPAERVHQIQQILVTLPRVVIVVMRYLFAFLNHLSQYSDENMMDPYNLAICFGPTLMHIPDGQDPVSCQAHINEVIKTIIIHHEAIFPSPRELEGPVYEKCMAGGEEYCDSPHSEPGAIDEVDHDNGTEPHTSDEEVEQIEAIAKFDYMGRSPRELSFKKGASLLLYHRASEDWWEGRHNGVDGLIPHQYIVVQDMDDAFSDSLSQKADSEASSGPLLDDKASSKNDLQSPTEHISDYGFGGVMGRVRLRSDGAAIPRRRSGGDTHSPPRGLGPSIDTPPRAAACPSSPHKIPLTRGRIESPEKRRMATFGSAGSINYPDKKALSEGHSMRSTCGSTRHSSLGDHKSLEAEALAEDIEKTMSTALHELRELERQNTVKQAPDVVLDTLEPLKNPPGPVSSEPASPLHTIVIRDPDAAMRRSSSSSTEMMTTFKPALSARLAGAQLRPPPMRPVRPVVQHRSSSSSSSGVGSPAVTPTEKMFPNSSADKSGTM
UniProt Q9Y6N7, residues 26-1651: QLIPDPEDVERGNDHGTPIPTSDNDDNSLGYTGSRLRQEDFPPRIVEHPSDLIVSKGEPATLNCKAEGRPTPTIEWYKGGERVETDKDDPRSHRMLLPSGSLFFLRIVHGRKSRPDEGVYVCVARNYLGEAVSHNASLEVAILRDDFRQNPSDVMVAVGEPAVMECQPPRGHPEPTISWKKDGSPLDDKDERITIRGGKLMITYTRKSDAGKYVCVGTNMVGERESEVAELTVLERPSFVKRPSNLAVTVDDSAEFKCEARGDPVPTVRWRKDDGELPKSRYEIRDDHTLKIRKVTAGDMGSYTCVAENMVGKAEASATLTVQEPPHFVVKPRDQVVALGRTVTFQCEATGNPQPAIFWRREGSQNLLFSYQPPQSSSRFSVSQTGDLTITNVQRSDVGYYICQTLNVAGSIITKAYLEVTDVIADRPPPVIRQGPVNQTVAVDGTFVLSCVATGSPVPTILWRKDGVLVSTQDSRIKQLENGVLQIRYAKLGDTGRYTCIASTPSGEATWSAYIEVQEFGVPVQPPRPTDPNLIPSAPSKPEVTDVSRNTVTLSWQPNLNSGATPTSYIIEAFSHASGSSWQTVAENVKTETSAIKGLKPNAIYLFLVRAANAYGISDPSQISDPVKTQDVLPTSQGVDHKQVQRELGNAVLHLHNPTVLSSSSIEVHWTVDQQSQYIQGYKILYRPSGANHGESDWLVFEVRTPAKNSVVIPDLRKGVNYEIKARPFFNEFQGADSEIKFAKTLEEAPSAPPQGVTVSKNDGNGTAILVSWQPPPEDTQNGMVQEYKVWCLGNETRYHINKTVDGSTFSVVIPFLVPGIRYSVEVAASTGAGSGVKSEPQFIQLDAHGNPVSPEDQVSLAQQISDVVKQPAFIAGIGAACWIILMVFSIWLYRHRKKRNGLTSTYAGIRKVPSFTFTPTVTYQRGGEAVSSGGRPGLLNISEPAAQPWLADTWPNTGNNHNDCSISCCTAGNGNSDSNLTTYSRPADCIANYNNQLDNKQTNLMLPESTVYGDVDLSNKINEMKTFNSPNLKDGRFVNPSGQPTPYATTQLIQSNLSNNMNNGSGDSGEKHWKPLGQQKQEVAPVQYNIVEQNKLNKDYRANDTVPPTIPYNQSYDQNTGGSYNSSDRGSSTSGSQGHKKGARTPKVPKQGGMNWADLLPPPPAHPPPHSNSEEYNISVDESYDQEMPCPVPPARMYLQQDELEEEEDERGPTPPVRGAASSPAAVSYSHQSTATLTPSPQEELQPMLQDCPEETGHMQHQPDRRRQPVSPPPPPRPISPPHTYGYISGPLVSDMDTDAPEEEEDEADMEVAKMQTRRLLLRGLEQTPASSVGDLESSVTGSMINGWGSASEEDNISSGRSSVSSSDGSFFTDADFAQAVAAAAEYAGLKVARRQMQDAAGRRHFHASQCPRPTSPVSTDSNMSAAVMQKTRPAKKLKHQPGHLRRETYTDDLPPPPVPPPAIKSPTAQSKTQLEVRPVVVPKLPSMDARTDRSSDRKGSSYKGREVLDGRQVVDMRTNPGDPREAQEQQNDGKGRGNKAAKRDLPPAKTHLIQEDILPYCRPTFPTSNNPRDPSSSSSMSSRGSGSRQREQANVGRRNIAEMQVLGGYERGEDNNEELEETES
UniProt Q9HCK4, residues 22-1378: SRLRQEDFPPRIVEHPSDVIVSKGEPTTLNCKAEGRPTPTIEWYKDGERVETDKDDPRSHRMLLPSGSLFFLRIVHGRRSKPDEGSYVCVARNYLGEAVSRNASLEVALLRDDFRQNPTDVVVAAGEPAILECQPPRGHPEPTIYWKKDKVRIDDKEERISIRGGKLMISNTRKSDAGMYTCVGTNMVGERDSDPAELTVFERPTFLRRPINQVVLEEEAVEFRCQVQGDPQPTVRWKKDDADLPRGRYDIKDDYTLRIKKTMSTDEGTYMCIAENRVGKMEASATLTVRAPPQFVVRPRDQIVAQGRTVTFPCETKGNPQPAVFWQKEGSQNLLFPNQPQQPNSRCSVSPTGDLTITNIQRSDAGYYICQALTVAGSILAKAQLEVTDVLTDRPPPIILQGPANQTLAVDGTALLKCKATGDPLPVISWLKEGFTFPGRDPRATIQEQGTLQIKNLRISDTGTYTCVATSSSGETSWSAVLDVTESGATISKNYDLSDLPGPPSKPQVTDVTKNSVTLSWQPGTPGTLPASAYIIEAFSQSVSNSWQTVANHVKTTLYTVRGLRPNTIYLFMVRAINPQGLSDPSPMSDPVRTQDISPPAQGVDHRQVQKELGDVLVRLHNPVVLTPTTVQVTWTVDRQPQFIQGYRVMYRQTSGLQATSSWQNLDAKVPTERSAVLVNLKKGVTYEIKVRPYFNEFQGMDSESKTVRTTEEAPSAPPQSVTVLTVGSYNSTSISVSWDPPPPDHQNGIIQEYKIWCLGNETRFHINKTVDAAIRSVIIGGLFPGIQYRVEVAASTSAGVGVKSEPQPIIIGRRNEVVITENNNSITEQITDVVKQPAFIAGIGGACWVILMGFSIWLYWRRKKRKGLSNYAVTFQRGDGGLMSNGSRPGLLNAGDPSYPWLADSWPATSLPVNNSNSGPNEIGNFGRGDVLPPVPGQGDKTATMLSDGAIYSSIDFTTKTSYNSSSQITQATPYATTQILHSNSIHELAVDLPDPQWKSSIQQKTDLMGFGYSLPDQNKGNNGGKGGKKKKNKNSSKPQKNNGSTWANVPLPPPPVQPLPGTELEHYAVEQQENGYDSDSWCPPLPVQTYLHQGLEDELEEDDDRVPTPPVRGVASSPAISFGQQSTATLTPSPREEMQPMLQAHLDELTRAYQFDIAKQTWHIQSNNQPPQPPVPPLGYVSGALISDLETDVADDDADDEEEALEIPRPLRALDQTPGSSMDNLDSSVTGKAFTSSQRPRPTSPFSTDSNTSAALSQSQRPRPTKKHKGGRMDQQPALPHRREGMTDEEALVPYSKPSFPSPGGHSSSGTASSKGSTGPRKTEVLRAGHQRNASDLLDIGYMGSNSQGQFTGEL

Legend:
[1] = target: srGAP3 construct carrying a mutation in the SH3 domain (UniProt O43295); assay: co-IP; HEK293 cells transiently co-transfected with srGAP3 and Myc-tagged Robo1/2 constructs; lysed in modified RIPA buffer (50 mM Tris/HCl pH 7.4, 1% NP-40, 0.25% Na-deoxycholate, 1 mM EDTA); 400 µg lysate precipitated with rabbit srGAP3 (19.1) antibody and protein A/G sepharose; blot with anti-myc 9E10
[2] = target: Slit-Robo GTPase activating protein 3 (srGAP3), full length (UniProt O43295); assay: as above

Row | Substance | binding [1] | binding [2]
1 | Myc-tagged Robo1, full length (from UniProt Q9Y6N7 26-1651) (receptor) | no binding | –
2 | Myc-tagged Robo2, full length (from UniProt Q9HCK4 22-1378) (receptor) | no binding | –
3 | ΔCC3 Robo1 (truncated Robo1 construct missing the CC3 domain), Myc-tagged (from UniProt Q9Y6N7) (receptor) | – | no binding
4 | ΔCC3 Robo2 (truncated Robo2 construct missing the CC3 domain), Myc-tagged (from UniProt Q9HCK4) (receptor) | – | no binding
